Tested on: primary FSHD myotubes
Assay: Myotube fusion / differentiation readout (fusion index) in primary FSHD myotubes, 15 h or 72 h treatment
Type: cell-based, human
From the text: A quantitative assay readout was developed based on script-based image analysis. […] To analyse the images, an automated script was developed, enabling the detection of nuclei, myotube borders and DUX4 signals, with the script also detecting artefacts to reduce false positive signals. The script enabled multiple validated readouts including the number of DUX4 positive nuclei and nuclei clusters, the fusion index, myotube area, myotube width and myotube skeleton length (see FIG. 2). Additionally, the total nuclei count was included as a measure of cell loss or compound toxicity.
Compounds are administered either 15 h before fixation, resembling the original screening protocol, or 72 h before fixation (grey arrow). In the latter case, compounds are present during the whole differentiation process.

COc1ccc(CC(C)NCC(O)c2ccc(O)c(NC=O)c2)cc1 (stereo not shown) [formoterol]
effect on fusion process and differentiation of myoblasts into myotubes: no myotube formation can be observed
